These results are taken from publication PMC11426234.

Chains of the proteins cited; added tags and fusions are not shown. Residues count along the entry.
UniProt P29317, residues 24-976: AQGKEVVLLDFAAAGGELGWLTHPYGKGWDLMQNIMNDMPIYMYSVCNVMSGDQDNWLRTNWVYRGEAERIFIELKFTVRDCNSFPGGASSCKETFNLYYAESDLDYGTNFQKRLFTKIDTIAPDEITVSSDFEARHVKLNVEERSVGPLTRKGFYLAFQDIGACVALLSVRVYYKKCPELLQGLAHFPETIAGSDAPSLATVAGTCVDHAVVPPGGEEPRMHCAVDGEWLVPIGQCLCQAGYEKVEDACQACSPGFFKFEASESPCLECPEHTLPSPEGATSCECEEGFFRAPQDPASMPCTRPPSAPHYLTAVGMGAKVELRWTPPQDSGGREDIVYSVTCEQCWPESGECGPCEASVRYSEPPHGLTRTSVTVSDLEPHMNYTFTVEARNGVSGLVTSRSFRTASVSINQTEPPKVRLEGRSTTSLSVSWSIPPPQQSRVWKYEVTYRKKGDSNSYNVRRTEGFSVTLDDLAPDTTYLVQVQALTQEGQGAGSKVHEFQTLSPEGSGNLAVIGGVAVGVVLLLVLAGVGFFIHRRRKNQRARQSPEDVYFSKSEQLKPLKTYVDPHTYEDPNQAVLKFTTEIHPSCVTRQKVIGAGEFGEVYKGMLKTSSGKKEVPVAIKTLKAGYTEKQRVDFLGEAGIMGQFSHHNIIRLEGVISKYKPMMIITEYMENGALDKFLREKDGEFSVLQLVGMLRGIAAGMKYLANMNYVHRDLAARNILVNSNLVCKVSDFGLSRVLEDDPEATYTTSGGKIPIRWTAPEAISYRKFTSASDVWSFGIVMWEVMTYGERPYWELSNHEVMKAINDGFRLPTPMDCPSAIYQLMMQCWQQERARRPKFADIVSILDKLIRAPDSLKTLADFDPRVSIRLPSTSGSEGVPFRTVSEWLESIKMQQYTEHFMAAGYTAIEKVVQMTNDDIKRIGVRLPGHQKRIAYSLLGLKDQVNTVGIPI

The target in assay [1] is T1, transforming growth factor beta-induced protein (TGFBI), endogenous in GSCs (human (endogenous in T3691 GSCs)) (UniProt Q15582).
T1 sequence: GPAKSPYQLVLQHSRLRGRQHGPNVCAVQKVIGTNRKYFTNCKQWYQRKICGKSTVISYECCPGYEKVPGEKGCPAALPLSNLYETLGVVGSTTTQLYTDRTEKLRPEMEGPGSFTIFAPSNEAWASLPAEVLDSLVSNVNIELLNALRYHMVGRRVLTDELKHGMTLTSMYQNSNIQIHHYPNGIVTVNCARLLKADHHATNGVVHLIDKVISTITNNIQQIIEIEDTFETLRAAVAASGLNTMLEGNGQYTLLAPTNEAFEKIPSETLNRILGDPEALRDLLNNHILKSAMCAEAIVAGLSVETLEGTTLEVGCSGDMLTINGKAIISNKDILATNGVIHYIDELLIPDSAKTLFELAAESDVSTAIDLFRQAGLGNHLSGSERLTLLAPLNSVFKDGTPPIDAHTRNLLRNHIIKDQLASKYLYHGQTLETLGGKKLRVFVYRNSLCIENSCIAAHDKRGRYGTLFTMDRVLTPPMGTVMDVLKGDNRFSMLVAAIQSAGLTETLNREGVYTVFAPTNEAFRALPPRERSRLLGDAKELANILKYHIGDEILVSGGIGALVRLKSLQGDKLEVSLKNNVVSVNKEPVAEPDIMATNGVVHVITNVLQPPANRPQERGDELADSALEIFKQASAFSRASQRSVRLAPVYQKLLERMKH
As to the kind of experiment: co-IP; endogenous proteins, GSC lysate (T3691, hypoxia) in Pierce IP Lysis Buffer; primary antibody or IgG control, protein A/G agarose overnight at 4°C; immunoblot. A general note: Immunoblotting shows a protein as a band on a membrane.

Assay [2] addresses T2, exogenous TGFBI expressed in 293T (human) (UniProt Q15582).
T2 sequence: T1 sequence
In words: co-IP; exogenous TGFBI and EphA2 expressed in 293T cells; IP and immunoblot.

These are yes or no findings as the source states them, for the method shown. In cells and extracts the contact can be indirect. Some entries that bind do so weakly or less than the wild type.

For the substance “EphA2, endogenous in GSCs (from UniProt P29317 24-976) (receptor)”, in assay [1], the binding result is recorded as “binds”.
As for “exogenous EphA2 expressed in 293T (from UniProt P29317 24-976) (receptor)”, the binding entry in assay [2] is “binds”.
